According to the supplement of paper PMC8256030:
Some of the results follow. This data set is noisy: repeats of one test often differ as much as different tests do.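 HEK293T cells were given each compound shortly before transfection with a reporter in which red mCherry is followed by the SARS-CoV-2 frameshift element and then GFP in the −1 frame, so GFP appears only after frameshifting.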

Tested on: HEK293T
Test: percent viability (nuclei count) relative to control; higher = more viable cells
Conditions: 10 µM; 24 h

SMILES | percent viability [%]
Nc1nc(CC(=O)Nc2ccc(CCNC[C@H](O)c3ccccc3)cc2)cs1 [Mirabegron] | 256
CC(=O)Nc1ccc(OC(=O)c2ccccc2O)cc1 [acetaminosalol] | 328
CN(C)C(=O)N[C@H]1CC[C@H](CCN2CCN(c3cccc(Cl)c3Cl)CC2)CC1 [Cariprazine] | 239
N#C[C@@H]1CCCN1C(=O)CNC12CC3CC(CC(O)(C3)C1)C2 [vildagliptin] | 145
CCCC(=O)O[C@]1(C(=O)COC(C)=O)CC[C@H]2[C@@H]3C[C@H](F)C4=CC(=O)C=C[C@]4(C)[C@@]3(F)[C@@H](O)C[C@@]21C [difluprednate] | 285
O=C(O)CCNC(=O)c1ccc(/N=N/c2ccc(O)c(C(=O)O)c2)cc1 [balsalazide] | 218
